In PMC5780496:

Columns and labels:
HACE1 ANK domain alone = test: co-IP; MCF12A cells 20 hours post-transfection, lysed in 50 mM Tris-HCl pH 7.5, 150 mM NaCl, 1% Triton-X100, 0.27 M sucrose; anti-HA or anti-Flag affinity gel, 2 hours at 4 °C; immunoblot; in some samples active PAK1(K141A) co-expressed
HACE1 MID region alone = test: as above

B1: HACE1 HECT domain alone (domain or fragment, UniProt Q8IYU2 574-909)
chain: NCAKLKQGIAVRFHGEEGMGQGVVREWFDILSNEIVNPDYALFTQSADGTTFQPNSNSYVNPDHLNYFRFAGQILGLALNHRQLVNIYFTRSFYKHILGIPVNYQDVASIDPEYAKNLQWILDNDISDLGLELTFSVETDVFGAMEEVPLKPGGGSILVTQNNKAEYVQLVTELRMTRAIQPQINAFLQGFHMFIPPSLIQLFDEYELELLLSGMPEIDVSDWIKNTEYTSGYEREDPVIQWFWEVVEDITQEERVLLLQFVTGSSRVPHGGFANIMGGSGLQNFTIAAVPYTPNLLPTSSTCINMLKLPEYPSKEILKDRLLVALHCGSYGYTMA
B1 was tested, and the binding (HACE1 ANK domain alone) was “no binding” and the binding (HACE1 MID region alone) was “no binding”.

Results are given in words; binding and its absence hold for the method and conditions named. In cells and extracts the contact can be indirect.
